# Experimental data: PubChem BioAssay AID1671195 (Yale University, 2021)
# Purpose: 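Genes whose knockdown alters LDL uptake in liver cancer cells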 (primary screen)
# Cell system: human Huh7 hepatoma cells
# Knock-down reagent: siRNA pool against human genes, 18 nM
# Time to read-out: about 2 to 2.5 days of knockdown, then 8 h LDL uptake
# Conditions: DiI-labelled LDL at 30 µg/ml for 8 h, in lipoprotein-deficient serum medium
# Read-out: 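Fluorescent LDL signal imaged in cells, scaled to the plate median, robust z-score for each replicate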
# Direction: robust z-score: higher = more LDL uptake after knockdown
# Hit rule: 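a gene counts as active if at least two replicate z-scores exceed ±2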
# The deposit covers about 22,000 reagents; this is a part drawn at random. About 1,510 of all reagents (6.9%) count as active. 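Active includes knockdowns raising or lowering LDL uptake; positive z-scores mean more uptake, negative mean less.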 Entries without a mark were called inactive. Reagents against one gene are numbered here. Reagent sequences are not shown.
gene,reagent no.,"robust z-score, replicate 1","robust z-score, replicate 2","robust z-score, replicate 3"
NBPF3 (NBPF member 3),1,-0.203,-0.425,-0.139
OSTF1 (osteoclast stimulating factor 1),1,0.65,1.3,0.443
SMC4 (structural maintenance of chromosomes 4),1,-2.03 (active),-1.99,-1.47
OR4A47 (olfactory receptor family 4 subfamily A member 47),1,0.996,0.832,0.468
OR10J1 (olfactory receptor family 10 subfamily J member 1),1,-0.642,-0.53,-0.239
LOC442111 (retired record),1,-0.798,-0.789,-0.826
ZIC1 (Zic family zinc finger 1),1,-0.824,-1.16,-1.04
LOC441239,1,-0.626,-0.161,-0.423
LOC440113 (retired record),1,4.4 (active),4.1,4.23
SPRYD3 (SPRY domain containing 3),1,0.303,0.348,-0.0591
LINC01299 (long independently transcribed non-coding RNA 1299),1,2.14,1.96,1.82
LOC400944 (retired record),1,-0.88,-0.821,-0.355
PRND (prion like protein doppel),1,-1.22,0.439,0.859
GBP7 (guanylate binding protein 7),1,-0.976,-0.997,-0.986
ZNF804A (zinc finger protein 804A),1,-0.675,-0.928,-0.856
LOC440094 (retired record),1,0.68,0.824,0.824
S100G (S100 calcium binding protein G),1,1.14,0.565,0.532
"TEX56P (testis expressed 56, pseudogene)",1,1.27,1.74,0.816
BCAS3 (BCAS3 microtubule associated cell migration factor),1,-0.944,-1.22,0.366
PXDNL (peroxidasin like),1,-0.307,0.0612,0.423
SETD4 (SET domain containing 4),1,1.11,0.546,1.17
MRGPRX3 (MAS related GPR family member X3),1,1.41 (active),2.35,3.26
CAPN1 (calpain 1),1,-0.841,-0.0674,-0.064
CCT7 (chaperonin containing TCP1 subunit 7),1,-0.881,-1.13,-1.38
SLC30A2,1,1.37,1.33,1.81
LINC02538 (long independently transcribed non-coding RNA 2538),1,1.4,0.939,1.1
LOC389330 (retired record),1,0.355,0.746,1.14
MAGEE2 (MAGE family member E2),1,-1.66,-1.6,-1.64
CRABP2 (cellular retinoic acid binding protein 2),1,1.9,1.05,1.81
SLC26A10P,1,-0.159,-0.329,0.345
KIR3DP1,1,-1.12,-1.29,-1.25
LOC441004 (retired record),1,-0.341,-0.229,-0.419
BHLHE22 (basic helix-loop-helix family member e22),1,1.99,0.162,1.67
GSTT4 (glutathione S-transferase theta 4),1,-0.269,-0.305,-1.06
INTS15 (integrator complex subunit 15),1,2.26 (active),1.93,2.9
SLC17A4,1,-0.906,-0.936,-1.16
ZNF574 (zinc finger protein 574),1,-1.21,-1.65,-1.47
RNF223 (ring finger protein 223),1,-0.136,0.718,0.183
LOC441167 (retired record),1,-0.287,-0.982,-0.539
LINC01010 (long independently transcribed non-coding RNA 1010),1,1.96,0.891,1.17
MGST3 (microsomal glutathione S-transferase 3),1,-0.519,-0.603,-0.82
NMBR (neuromedin B receptor),1,0.0224,0.162,-1.58
APOOL (apolipoprotein O like),1,-2.12,-1.55,-1.29

Continued (9 carried over from the part before).
gene,reagent no.,"robust z-score, replicate 1","robust z-score, replicate 2","robust z-score, replicate 3"
INTS15 (integrator complex subunit 15),1,2.26 (active),1.93,2.9
SLC17A4,1,-0.906,-0.936,-1.16
ZNF574 (zinc finger protein 574),1,-1.21,-1.65,-1.47
RNF223 (ring finger protein 223),1,-0.136,0.718,0.183
LOC441167 (retired record),1,-0.287,-0.982,-0.539
LINC01010 (long independently transcribed non-coding RNA 1010),1,1.96,0.891,1.17
MGST3 (microsomal glutathione S-transferase 3),1,-0.519,-0.603,-0.82
NMBR (neuromedin B receptor),1,0.0224,0.162,-1.58
APOOL (apolipoprotein O like),1,-2.12,-1.55,-1.29
XBP1 (X-box binding protein 1),1,0.951,1.14,-0.207
ARHGAP35 (Rho GTPase activating protein 35),1,-0.564,-0.627,-0.879
PELI2 (pellino E3 ubiquitin protein ligase family member 2),1,1.93 (active),2.39,0.685
CCR2 (C-C motif chemokine receptor 2),1,0.67,0.433,0.697
PRKD1 (protein kinase D1),1,0.0128,-0.228,0.469
SPIN1 (spindlin 1),1,-0.964,1.33,-0.49
SORT1 (sortilin 1),1,0.101,-0.299,-0.371
STAM2 (signal transducing adaptor molecule 2),1,1.69,0.913,1.69
"RO60 (Ro60, Y RNA binding protein)",1,-0.309,0.233,0.554
PPL (periplakin),1,-1.18,0.945,-1.23
C1RL (complement C1r subcomponent like),1,-2.15,-1.27,-1.41
DERL1 (derlin 1),1,-0.658,0.43,-0.224
FLJ41327 (retired record),1,0.861,0.937,1.25
BROX (BRO1 domain and CAAX motif containing),1,-0.424,-0.00745,-0.622
LOC440071 (retired record),1,0.147,0.905,0.155
SPOPL (speckle type BTB/POZ protein like),1,2.85 (active),2.38,2.37
TIPE3 (TNF alpha induced protein 8 like 3),1,0.999,1.27,0.723
CASP7 (caspase 7),1,-1.7,-1.14,-1.59
CEACAM4 (CEA cell adhesion molecule 4),1,-1.41,-1.27,-0.94
LOC389183 (retired record),1,4.1 (active),2.76,2.36
EIF5B (eukaryotic translation initiation factor 5B),1,-0.691,-0.657,-0.66
"MLLT6 (MLLT6, PHD finger containing)",1,2.33 (active),4.19,2.9
PIGC (phosphatidylinositol glycan anchor biosynthesis class C),1,-0.518,-0.427,-0.79
NOVA2 (NOVA alternative splicing regulator 2),1,-0.943,-0.428,-1.1
ZNF136 (zinc finger protein 136),1,0.675,0.64,0.446
MDGA1 (MAM domain containing glycosylphosphatidylinositol anchor 1),1,-0.982,-0.887,-0.923
NAIF1 (nuclear apoptosis inducing factor 1),1,0.254,0.124,0.287
INSYN1 (inhibitory synaptic factor 1),1,-1.2,-1.16,-0.969
KCNE2,1,-0.97,-0.824,-0.851
MTMR3 (myotubularin related protein 3),1,1.8 (active),2.05,2.51
MTMR3 (myotubularin related protein 3),2,1.27,1.39,1.02
PTAFR (platelet activating factor receptor),1,0.0891,0.285,-0.0352
KLHDC7B (kelch domain containing 7B),1,-0.627,0.62,0.143
IQCC (IQ motif containing C),1,0.889,1.01,0.127
LOC340171 (retired record),1,0.636,0.445,0.712
TBXT (T-box transcription factor T),1,-0.312,-0.554,-0.529
ALDH6A1 (aldehyde dehydrogenase 6 family member A1),1,-0.00404,-0.0309,-0.633
TRPC7,1,0.112,-0.496,-0.197
IKZF5 (IKAROS family zinc finger 5),1,-0.787,-1.39,-0.245
PSCA (prostate stem cell antigen),1,-0.507,-0.856,-0.503
"USF2 (upstream transcription factor 2, c-fos interacting)",1,0.252,-0.0733,-0.241
LOC401216 (retired record),1,1.13,0.745,1.39
ZNF461 (zinc finger protein 461),1,-0.315,-0.495,-0.12
SULT1C2 (sulfotransferase family 1C member 2),1,0.793,0.722,1.1
